# In the supplement of paper PMC8728848:
# This is one part of the list.
# B1: CBP21 (Serratia marcescens), O83009 (protein)
# chain: MNKTSRTLLSLGLLSAAMFGVSQQANAHGYVESPASRAYQCKLQLNTQCGSVQAEPQSVEGLKGFPQAGPADGHIASADKSTFFELDQQTPTRWNKLNLKTGPNSFTWKLTARHSTTSWRYFITKPNWDASQPLTRASFDLTPFCQFNDGGAIPAAQVTHQCNIPADRSGSHVILAVWDIADTANAFYQAIDVNLSK
# How the values were obtained:
# Test in all cases: glycan array binding signal (z-score within array); higher = stronger binding
# Conditions in all cases: glycan notation: IUPAC condensed, linker removed; mutation: Y54A
# [1] = molecular target: Gal(b1-4)GalNAc(b1-3)[Fuc(a1-2)]Gal(b1-4)GlcNAc
# Summary of the method: (§1)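 The Consortium for Functional Glycomics database supplied 3228 glycan arrays, of which those lacking an available protein sequence were dropped. The binding signal, a within-array Z-score, was averaged across arrays of the same protein sequence and across linkers. Negative scores can be read as non-binding.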
# [2] = molecular target: Gal(b1-4)Glc
# Summary of the method: as §1
# [3] = molecular target: Gal(b1-4)Glc6S
# Summary of the method: as §1
# [4] = molecular target: Gal(b1-4)GlcNAc
# Summary of the method: as §1
# [5] = molecular target: Gal(b1-4)GlcNAc(a1-6)Gal(b1-4)GlcNAc
# Summary of the method: as §1
# [6] = molecular target: Gal(b1-4)GlcNAc(b1-2)Man
# Summary of the method: as §1
# [7] = molecular target: Gal(b1-4)GlcNAc(b1-2)Man(a1-3)Man(b1-4)GlcNAc(b1-4)GlcNAc
# Summary of the method: as §1
# [8] = molecular target: Gal(b1-4)GlcNAc(b1-2)Man(a1-3)[Gal(b1-4)GlcNAc(b1-2)Man(a1-6)]Man(b1-4)GlcNAc(b1-4)GlcNAc
# Summary of the method: as §1
# [9] = molecular target: Gal(b1-4)GlcNAc(b1-2)Man(a1-3)[Gal(b1-4)GlcNAc(b1-2)Man(a1-6)]Man(b1-4)GlcNAc(b1-4)[Fuc(a1-6)]GlcNAc
# Summary of the method: as §1
# [10] = molecular target: Gal(b1-4)GlcNAc(b1-2)Man(a1-3)[Gal(b1-4)GlcNAc(b1-2)Man(a1-6)][Gal(b1-4)GlcNAc(b1-4)]Man(b1-4)GlcNAc(b1-4)[Fuc(a1-6)]GlcNAc
# Summary of the method: as §1
# [11] = molecular target: Gal(b1-4)GlcNAc(b1-2)Man(a1-3)[Gal(b1-4)GlcNAc(b1-2)Man(a1-6)][GlcNAc(b1-4)]Man(b1-4)GlcNAc(b1-4)[Fuc(a1-6)]GlcNAc
# Summary of the method: as §1
# [12] = molecular target: Gal(b1-4)GlcNAc(b1-2)Man(a1-3)[GlcNAc(b1-2)Man(a1-6)]Man(b1-4)GlcNAc(b1-4)GlcNAc
# Summary of the method: as §1
# [13] = molecular target: Gal(b1-4)GlcNAc(b1-2)Man(a1-3)[GlcNAc(b1-4)][Gal(b1-4)GlcNAc(b1-2)Man(a1-6)]Man(b1-4)GlcNAc(b1-4)GlcNAc
# Summary of the method: as §1
# [14] = molecular target: Gal(b1-4)GlcNAc(b1-2)Man(a1-3)[Man(a1-6)]Man(b1-4)GlcNAc(b1-4)GlcNAc
# Summary of the method: as §1
# [15] = molecular target: Gal(b1-4)GlcNAc(b1-2)Man(a1-6)Man(b1-4)GlcNAc(b1-4)GlcNAc
# Summary of the method: as §1
# [16] = molecular target: Gal(b1-4)GlcNAc(b1-2)Man(a1-6)[GlcNAc(b1-2)Man(a1-3)]Man(b1-4)GlcNAc(b1-4)GlcNAc
# Summary of the method: as §1
# [17] = molecular target: Gal(b1-4)GlcNAc(b1-2)Man(a1-6)[Man(a1-3)]Man(b1-4)GlcNAc(b1-4)GlcNAc
# Summary of the method: as §1
# [18] = molecular target: Gal(b1-4)GlcNAc(b1-2)[Gal(b1-4)GlcNAc(b1-4)]Man(a1-3)[Gal(b1-4)GlcNAc(b1-2)Man(a1-6)]Man(b1-4)GlcNAc(b1-4)GlcNAc
# Summary of the method: as §1
# [19] = molecular target: Gal(b1-4)GlcNAc(b1-2)[Gal(b1-4)GlcNAc(b1-4)]Man(a1-3)[Gal(b1-4)GlcNAc(b1-2)[Gal(b1-4)GlcNAc(b1-6)]Man(a1-6)]Man(b1-4)GlcNAc(b1-4)GlcNAc
# Summary of the method: as §1
# [20] = molecular target: Gal(b1-4)GlcNAc(b1-2)[Gal(b1-4)GlcNAc(b1-4)]Man(a1-3)[GlcNAc(b1-4)][Gal(b1-4)GlcNAc(b1-2)Man(a1-6)]Man(b1-4)GlcNAc(b1-4)GlcNAc
# Summary of the method: as §1
# [21] = molecular target: Gal(b1-4)GlcNAc(b1-2)[Gal(b1-4)GlcNAc(b1-4)]Man(a1-3)[GlcNAc(b1-4)][Gal(b1-4)GlcNAc(b1-2)[Gal(b1-4)GlcNAc(b1-6)]Man(a1-6)]Man(b1-4)GlcNAc(b1-4)GlcNAc
# Summary of the method: as §1
# [22] = molecular target: Gal(b1-4)GlcNAc(b1-2)[Gal(b1-4)GlcNAc(b1-6)]Man(a1-6)[Gal(b1-4)GlcNAc(b1-2)Man(a1-3)]Man(b1-4)GlcNAc(b1-4)GlcNAc
# Summary of the method: as §1
binder,measurement,setting,value
B1,glycan array binding signal (z-score),[1],-0.864
same,glycan array binding signal (z-score),[2],0.106
same,glycan array binding signal (z-score),[3],-0.383
same,glycan array binding signal (z-score),[4],-0.372
same,glycan array binding signal (z-score),[5],0.859
same,glycan array binding signal (z-score),[6],-0.757
same,glycan array binding signal (z-score),[7],0.423
same,glycan array binding signal (z-score),[8],-0.442
same,glycan array binding signal (z-score),[9],-0.168
same,glycan array binding signal (z-score),[10],-0.748
same,glycan array binding signal (z-score),[11],-0.111
same,glycan array binding signal (z-score),[12],0.583
same,glycan array binding signal (z-score),[13],-0.743
same,glycan array binding signal (z-score),[14],0.166
same,glycan array binding signal (z-score),[15],-0.373
same,glycan array binding signal (z-score),[16],-0.884
same,glycan array binding signal (z-score),[17],-0.719
same,glycan array binding signal (z-score),[18],-0.44
same,glycan array binding signal (z-score),[19],0.113
same,glycan array binding signal (z-score),[20],-0.281
same,glycan array binding signal (z-score),[21],-0.785
same,glycan array binding signal (z-score),[22],-0.937

# 2 consecutive records from above, for reference:
binder,measurement,setting,value
B1,glycan array binding signal (z-score),[19],0.113
same,glycan array binding signal (z-score),[20],-0.281
